Experiment: general procedure: Fmoc solid-phase peptide synthesis; Wang resin; HBTU/HOBt/DIPEA
Conditions: whole synthesis; for final HPLC purity: 220 nm; for isolated mass / isolated yield: scale 15 μmol

## CF3(CF2)7(CH2)2C(O)-Lys-Phe-Arg-Arg-Gln-Arg-Pro-Arg-Leu-Ser-His-Lys-Gly-Pro-Met-Pro-Phe-OH
  final HPLC purity: >98%
  isolated mass: 20.6 mg
  isolated yield: 49%

## CH3(CH2)14C(O)-Lys-Phe-Arg-Arg-Gln-Arg-Pro-Arg-Leu-Ser-His-Lys-Gly-Pro-Met-Pro-Phe-OH
  final HPLC purity: >98%
  isolated mass: 7.5 mg
  isolated yield: 16%

Reference: patent US20210206817A1 (priority 2014, published 2021)
